For this test, the target named is purified extracellular domains of DSG2 (UniProt Q14126). Briefly: ELISA; direct ELISA: purified DSG2‐ECD or 5Q‐ECD immobilised on a 96‐well plate, S9Fc in solution, detected with HRP‐conjugated anti‐IgG; both purified.

Chains of the proteins cited; added tags and fusions are not shown. Residues count along the entry.
UniProt Q14126, residues 50-609: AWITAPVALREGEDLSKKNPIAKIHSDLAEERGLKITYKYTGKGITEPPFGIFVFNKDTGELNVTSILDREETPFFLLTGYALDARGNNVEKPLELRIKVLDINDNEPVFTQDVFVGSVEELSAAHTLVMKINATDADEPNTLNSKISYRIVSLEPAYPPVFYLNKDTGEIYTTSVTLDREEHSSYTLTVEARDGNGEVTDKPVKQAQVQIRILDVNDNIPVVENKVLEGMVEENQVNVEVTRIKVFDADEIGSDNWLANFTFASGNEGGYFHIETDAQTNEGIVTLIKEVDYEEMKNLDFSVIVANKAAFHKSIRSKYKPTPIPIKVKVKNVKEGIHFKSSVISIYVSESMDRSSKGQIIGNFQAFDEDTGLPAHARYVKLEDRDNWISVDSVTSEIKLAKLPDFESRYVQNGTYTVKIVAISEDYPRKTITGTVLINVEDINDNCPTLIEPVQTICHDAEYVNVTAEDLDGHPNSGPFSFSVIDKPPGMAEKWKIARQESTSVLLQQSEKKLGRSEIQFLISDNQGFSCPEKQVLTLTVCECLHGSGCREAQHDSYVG

Experimental findings from paper PMC11884560 are described below.

These are yes or no findings as the source states them, for the method shown. Some entries that bind do so weakly or less than the wild type. Tags and fused reporters may be left off the sequences shown.

B1: Siglec‐9‐Fc (Fc fusion, UniProt Q9Y336 18-348)
chain: QTSKLLTMQSSVTVQEGLCVHVPCSFSYPSHGWIYPGPVVHGYWFREGANTDQDAPVATNNPARAVWEETRDRFHLLGDPHTKNCTLSIRDARRSDAGRYFFRMEKGSIKWNYKHHRLSVNVTALTHRPNILIPGTLESGCPQNLTCSVPWACEQGTPPMISWIGTSVSPLDPSTTRSSVLTLIPQPQDHGTSLTCQVTFPGASVTTNKTVHLNVSYPPQNLTMTVFQGDGTVSTVLGNGSSLSLPEGQSLRLVCAVDAVDSNPPARLSLSWRGLTLCPSQPSNPGVLELPWVHLRDAAEFTCRAQNPLGSQQVYLNVSLQSKATSGVTQGGSGGGGS
For B1, the binding entry was “binds”.
